13 molecules from patent publication EP4778539A1 can be followed below.

No constants are given. Whether binding was seen depends on the method and setting. Binding calls can cover weak binding; strength is not graded here.

Sequences and labels used below:
B1: humanized antibody complex #63 (antibody, human IgG1, V domains shown)
VH: GPDLVKPGASVKISCKASGYSFTAYYMHWVKQSHGKSLEWIGRVNPNNGGTTYNQKFKGKAILTVDKSSSTAYMELRSLTFEDSAVYYCARRIYYGYFDYWGQGTTVTVSS
VL: AFFAVSLGQRATISCKASQSVDYDGDSYMNWYQQKPGQPPKLLIYVASNLESGVPARFSGSGSGTDFTLNIHPVEEEDAATYYCQQSNEDPYTFGGGTKLEIKQ
B2: F(ab')2 complex #69 (protein)
VH: EVQLVESGGGLVQPGGSLRLSCAASGFSLSSHSLGWVRQAPGKGLEWIGDIRSGGSAYYANWAKGRFTISRDNSKNTLYLQMNSLRAEDTAVYYCTRTNGPSDLTNRLDLWGQGTLVTVSS
VL: QVLTQSPSSLSASVGDRVTINCQASQSLYNNENLAWFQQKPGKVPKRLIYGASTLASGVSSRFSGSGSGTEFTLTISSLQCEDFAIYYCLGEFSCGSADCFAFGGGTKVEIK
B3: humanized antibody complex #72 (antibody, human IgG1, V domains shown)
VH: EVQLVESGGGLVQPGGSLRLSCAASGFSLSSHSLGWVRQAPGKGLEWIGDIRSGGSAYYANWAKGRFTISRDNSKNTLYLQMNSLRAEDTAVYFCTRTNGPSDLTNRLDLWGQGTLVTVSS
VL: EIVLTQSPSSLSASVGDRVTINCQASQSLYNNENLAWFQQKPGKVPKRLIYGASTLASGVSSRFSGSGSGTEFTLTISNLQPEDFATYYCLGEFSCGSADCFAFGGGTKVEIK
B4: humanized antibody complex #69 (antibody, human IgG1, V domains shown)
VH: EVQLVESGGGLVQPGGSLRLSCAASGFSLSSHSLGWVRQAPGKGLEWIGDIRSGGSAYYANWAKGRFTISRDNSKNTLYLQMNSLRAEDTAVYYCTRTNGPSDLTNRLDLWGQGTLVTVSS
VL: QVLTQSPSSLSASVGDRVTINCQASQSLYNNENLAWFQQKPGKVPKRLIYGASTLASGVSSRFSGSGSGTEFTLTISSLQCEDFAIYYCLGEFSCGSADCFAFGGGTKVEIK
B5: F(ab')2 complex #74 (protein)
VH: EVQLVESGGGLVQPGGSLRLSCAASGFSLSSHSLGWVRQAPGKGLEWIGDIRSGGSAYYANWAKGRFTISRDNSKNTLYLQMNSLRAEDTAVYFCTRTNGPSDLTNRLDLWGQGTLVTVSS
VL: EQVLTQSPSSLSASVGDRVTINCQASQSLYNNENLAWFQQKPGKVPKRLIYGASTLASGVSSRFSGSGSGTEFTLTISNLQPEDFAIYYCLGEFSCGSADCFAFGGGTKVEIK
B6: F(ab')2 complex #71 (protein)
VH: EVQLVESGGGLVQPGGSLRLSCAASGFSLSSHSLGWVRQAPGKGLEWIGDIRSGGSAYYANWAKGRFTISRDNSKNTLYLQMNSLRAEDTAVYYCTRTNGPSDLTNRLDLWGQGTLVTVSS
VL: EQVLTQSPSSLSASVGDRVTINCQASQSLYNNENLAWFQQKPGKVPKRLIYGASTLASGVSSRFSGSGSGTEFTLTISNLQPEDFAIYYCLGEFSCGSADCFAFGGGTKVEIK
B7: humanized antibody complex #74 (antibody, human IgG1, V domains shown)
VH: EVQLVESGGGLVQPGGSLRLSCAASGFSLSSHSLGWVRQAPGKGLEWIGDIRSGGSAYYANWAKGRFTISRDNSKNTLYLQMNSLRAEDTAVYFCTRTNGPSDLTNRLDLWGQGTLVTVSS
VL: EQVLTQSPSSLSASVGDRVTINCQASQSLYNNENLAWFQQKPGKVPKRLIYGASTLASGVSSRFSGSGSGTEFTLTISNLQPEDFAIYYCLGEFSCGSADCFAFGGGTKVEIK
B8: humanized antibody complex #71 (antibody, human IgG1, V domains shown)
VH: EVQLVESGGGLVQPGGSLRLSCAASGFSLSSHSLGWVRQAPGKGLEWIGDIRSGGSAYYANWAKGRFTISRDNSKNTLYLQMNSLRAEDTAVYYCTRTNGPSDLTNRLDLWGQGTLVTVSS
VL: EQVLTQSPSSLSASVGDRVTINCQASQSLYNNENLAWFQQKPGKVPKRLIYGASTLASGVSSRFSGSGSGTEFTLTISNLQPEDFAIYYCLGEFSCGSADCFAFGGGTKVEIK
B9: F(ab')2 complex #72 (protein)
VH: EVQLVESGGGLVQPGGSLRLSCAASGFSLSSHSLGWVRQAPGKGLEWIGDIRSGGSAYYANWAKGRFTISRDNSKNTLYLQMNSLRAEDTAVYFCTRTNGPSDLTNRLDLWGQGTLVTVSS
VL: EIVLTQSPSSLSASVGDRVTINCQASQSLYNNENLAWFQQKPGKVPKRLIYGASTLASGVSSRFSGSGSGTEFTLTISNLQPEDFATYYCLGEFSCGSADCFAFGGGTKVEIK
B10: humanized antibody complex #70 (antibody, human IgG1, V domains shown)
VH: EVQLVESGGGLVQPGGSLRLSCAASGFSLSSHSLGWVRQAPGKGLEWIGDIRSGGSAYYANWAKGRFTISRDNSKNTLYLQMNSLRAEDTAVYFCTRTNGPSDLTNRLDLWGQGTLVTVSS
VL: QVLTQSPSSLSASVGDRVTINCQASQSLYNNENLAWFQQKPGKVPKRLIYGASTLASGVSSRFSGSGSGTEFTLTISSLQCEDFAIYYCLGEFSCGSADCFAFGGGTKVEIK
B11: F(ab')2 complex #70 (protein)
VH: EVQLVESGGGLVQPGGSLRLSCAASGFSLSSHSLGWVRQAPGKGLEWIGDIRSGGSAYYANWAKGRFTISRDNSKNTLYLQMNSLRAEDTAVYFCTRTNGPSDLTNRLDLWGQGTLVTVSS
VL: QVLTQSPSSLSASVGDRVTINCQASQSLYNNENLAWFQQKPGKVPKRLIYGASTLASGVSSRFSGSGSGTEFTLTISSLQCEDFAIYYCLGEFSCGSADCFAFGGGTKVEIK
B12: F(ab')2 complex #73 (protein)
VH: EVQLVESGGGLVQPGGSLRLSCAASGFSLSSHSLGWVRQAPGKGLEWIGDIRSGGSAYYANWAKGRFTISRDNSKNTLYLQMNSLRAEDTAVYYCTRTNGPSDLTNRLDLWGQGTLVTVSS
VL: EIVLTQSPSSLSASVGDRVTINCQASQSLYNNENLAWFQQKPGKVPKRLIYGASTLASGVSSRFSGSGSGTEFTLTISNLQPEDFATYYCLGEFSCGSADCFAFGGGTKVEIK
B13: humanized antibody complex #73 (antibody, human IgG1, V domains shown)
VH: EVQLVESGGGLVQPGGSLRLSCAASGFSLSSHSLGWVRQAPGKGLEWIGDIRSGGSAYYANWAKGRFTISRDNSKNTLYLQMNSLRAEDTAVYYCTRTNGPSDLTNRLDLWGQGTLVTVSS
VL: EIVLTQSPSSLSASVGDRVTINCQASQSLYNNENLAWFQQKPGKVPKRLIYGASTLASGVSSRFSGSGSGTEFTLTISNLQPEDFATYYCLGEFSCGSADCFAFGGGTKVEIK

In this assay the target is CAPRIN-1 protein. Nature of the assay: ELISA.
For the molecule B1, the binding entry was “binds”. Turning to B2, the binding entry is given as “binds”. For B3 the value was “binds”. For B4 the value was “binds”; for B5, “binds”; for B6, “binds”. As for B7, the entry is “binds”; as for B8, “binds”; as for B9, “binds”. As for B10, the binding entry is reported as “binds”. As for B11, the binding entry is on record as “binds”.

Turning to B12, the binding entry is “binds”. As to B13, the binding result is on record as “binds”.
